Results are given in words; binding and its absence hold for the method and conditions named. Binding seen in cells or lysates may run through a third protein. Binding calls can cover weak binding; strength is not graded here.
Assays:
[1] = target: receptor-interacting serine/threonine kinase (RIPK) 1, rat (rat (endogenous in PC12 and in rat primary hippocampal neurons)) (UniProt D3ZYL0); test: proximity ligation; Duolink In Situ PLA with anti-RIPK1 and anti-RIPK3 antibodies on fixed rat primary hippocampal neurons electroporated with Hrs siRNA
[2] = target: receptor-interacting serine/threonine kinase (RIPK) 1, rat (rat (endogenous in PC12 and in rat primary hippocampal neurons)) (UniProt D3ZYL0); test: co-IP; lysates of Hrs-silenced PC12 cells (500 μg total protein) in TNE buffer (50 mM Tris-HCl pH 7.4, 150 mM NaCl, 0.5% NP-40, 1 mM EDTA); first antibody overnight at 4 °C, protein-G-agarose 2 h, 4 washes; Western blot; precipitating antibody not named

By UniProt entry, the sequences of proteins in these tests, tags left out. Where a name states a change or a piece, a line headed by the entry shows the natural chain unless it says otherwise.
UniProt D3ZYL0: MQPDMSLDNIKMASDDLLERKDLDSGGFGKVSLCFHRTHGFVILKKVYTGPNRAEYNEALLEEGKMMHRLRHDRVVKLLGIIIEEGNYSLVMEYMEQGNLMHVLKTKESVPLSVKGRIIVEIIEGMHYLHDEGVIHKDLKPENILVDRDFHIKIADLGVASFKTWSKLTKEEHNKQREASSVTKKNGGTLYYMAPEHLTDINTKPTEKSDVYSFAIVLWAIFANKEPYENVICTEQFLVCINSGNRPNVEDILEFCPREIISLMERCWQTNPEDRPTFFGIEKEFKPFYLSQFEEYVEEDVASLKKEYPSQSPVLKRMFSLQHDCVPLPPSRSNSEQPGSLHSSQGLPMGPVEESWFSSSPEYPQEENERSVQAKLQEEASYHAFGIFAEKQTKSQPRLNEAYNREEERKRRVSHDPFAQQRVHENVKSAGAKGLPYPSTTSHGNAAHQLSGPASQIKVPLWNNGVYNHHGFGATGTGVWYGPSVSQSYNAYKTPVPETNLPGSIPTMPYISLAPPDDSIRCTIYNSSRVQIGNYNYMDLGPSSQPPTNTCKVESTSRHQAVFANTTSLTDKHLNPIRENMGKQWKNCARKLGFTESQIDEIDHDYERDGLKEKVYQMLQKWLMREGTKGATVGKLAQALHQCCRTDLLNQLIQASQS

B1: receptor-interacting serine/threonine kinase (RIPK) 3, rat (protein, UniProt Q9Z2P5 1-478)
chain: MSSVKLWLNGASSISLVGSEELENLGFVGKGGFGAVFRARHTAWNLDVAVKIVNSKKISREVKAMVNLRHENVLLLLGVTENLEWDYVYGPALVTGFMENGSLSGLLQPSCPRPWPLLCRLLEEVVLGMCYLHSLNPSLLHRDLKPSNVLLDPELHAKLADFGLSTFQGGSQSGSGSGSRDSGGTLAYLAPELLDNDGKASKASDVYSFGVLVWTVLAGREAEVVDKTSLIRGAVCNRQRRPPLTELPPDSPETPGLEGLKELMTHCWSSEPKDRPSFQDCESKTNNVYILVQDKVDAAVSKVKHYLSQYRSSDTKLSARESSQKGTEVDCPRETIVYEMLDRLHLEEPSGSVPERLTSLTERRGKEASFGHATPAGTSSDTLAGTPQIPHTLPSRGTTPRPAFTETPGPDPQRNQGDGRNSNPWYTWNAPNPMTGLQSIVLNNCSEVQIGQHNCMSVQPRTAFPKKEPAQFGRGRGW
[1]
  binding: binds
[2]
  binding: binds
